Assay [1] deals with mtHsp70 (endogenous, FADU cells) (human (endogenous in FADU)) (UniProt P38646). Briefly: co-IP; FADU cells infected with vector or shRNAs for Hsp60, mtHsp70 or Lon; IP of endogenous proteins with anti-Lon, anti-mtHsp70 or anti-Hsp60, western blot.
The target of assay [2] is Hsp60 (endogenous, FADU cells) (human (endogenous in FADU)), P10809. Described as above. To be noted: remark: other sources report otherwise.
Assay [3] addresses Hsp60 (GST pull-down assay), P10809. Briefly: pull-down; GST pull-down in vitro; approximately 0.3 μg of the GST proteins added. To be noted: remark: other sources report otherwise.

By UniProt entry, the sequences of proteins in these tests, tags left out. Residues count along the entry.
UniProt P38646, residues 47-679: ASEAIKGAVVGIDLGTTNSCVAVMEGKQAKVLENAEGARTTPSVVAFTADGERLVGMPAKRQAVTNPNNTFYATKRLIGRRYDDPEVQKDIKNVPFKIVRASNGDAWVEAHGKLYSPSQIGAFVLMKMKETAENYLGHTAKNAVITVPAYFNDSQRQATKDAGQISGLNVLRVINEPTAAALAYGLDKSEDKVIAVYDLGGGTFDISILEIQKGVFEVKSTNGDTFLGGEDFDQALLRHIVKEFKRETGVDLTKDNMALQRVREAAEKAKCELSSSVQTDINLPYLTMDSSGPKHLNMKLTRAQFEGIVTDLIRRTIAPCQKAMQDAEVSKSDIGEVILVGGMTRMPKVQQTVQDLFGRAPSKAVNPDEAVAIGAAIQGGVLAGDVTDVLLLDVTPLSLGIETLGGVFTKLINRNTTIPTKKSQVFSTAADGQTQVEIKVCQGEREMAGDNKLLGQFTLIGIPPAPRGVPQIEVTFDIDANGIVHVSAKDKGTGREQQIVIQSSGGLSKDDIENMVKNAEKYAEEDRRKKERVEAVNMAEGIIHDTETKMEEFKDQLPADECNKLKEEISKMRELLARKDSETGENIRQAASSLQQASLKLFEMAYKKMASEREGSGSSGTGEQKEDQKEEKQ

Results are given in words; binding and its absence hold for the method and conditions named. Binding seen in cells or lysates may run through a third protein. Some results given as binding are weak or reduced against the parent protein; the word gives no strength. For part of these data: Where a sequence is shown, tags or fusion partners need not be part of it.

B1: endogenous Lon (FADU cells) (enzyme, UniProt P36776 68-959)
chain: FWEASSRGGGAFSGGEDASEGGAEEGAGGAGGSAGAGEGPVITALTPMTIPDVFPHLPLIAITRNPVFPRFIKIIEVKNKKLVELLRRKVRLAQPYVGVFLKRDDSNESDVVESLDEIYHTGTFAQIHEMQDLGDKLRMIVMGHRRVHISRQLEVEPEEPEAENKHKPRRKSKRGKKEAEDELSARHPAELAMEPTPELPAEVLMVEVENVVHEDFQVTEEVKALTAEIVKTIRDIIALNPLYRESVLQMMQAGQRVVDNPIYLSDMGAALTGAESHELQDVLEETNIPKRLYKALSLLKKEFELSKLQQRLGREVEEKIKQTHRKYLLQEQLKIIKKELGLEKDDKDAIEEKFRERLKELVVPKHVMDVVDEELSKLGLLDNHSSEFNVTRNYLDWLTSIPWGKYSNENLDLARAQAVLEEDHYGMEDVKKRILEFIAVSQLRGSTQGKILCFYGPPGVGKTSIARSIARALNREYFRFSVGGMTDVAEIKGHRRTYVGAMPGKIIQCLKKTKTENPLILIDEVDKIGRGYQGDPSSALLELLDPEQNANFLDHYLDVPVDLSKVLFICTANVTDTIPEPLRDRMEMINVSGYVAQEKLAIAERYLVPQARALCGLDESKAKLSSDVLTLLIKQYCRESGVRNLQKQVEKVLRKSAYKIVSGEAESVEVTPENLQDFVGKPVFTVERMYDVTPPGVVMGLAWTAMGGSTLFVETSLRRPQDKDAKGDKDGSLEVTGQLGEVMKESARIAYTFARAFLMQHAPANDYLVTSHIHLHVPEGATPKDGPSAGCTIVTALLSLAMGRPVRQNLAMTGEVSLTGKILPVGGIKEKTIAAKRAGVTCIVLPAENKKDFYDLAAFITEGLEVHFVEHYREIFDIAFPDEQAEALAVER
Consider B1, for which the binding entry in assay [1] is “binds”.

B2: endogenous Lon (FADU cells), P36776 68-959 (enzyme)
chain: FWEASSRGGGAFSGGEDASEGGAEEGAGGAGGSAGAGEGPVITALTPMTIPDVFPHLPLIAITRNPVFPRFIKIIEVKNKKLVELLRRKVRLAQPYVGVFLKRDDSNESDVVESLDEIYHTGTFAQIHEMQDLGDKLRMIVMGHRRVHISRQLEVEPEEPEAENKHKPRRKSKRGKKEAEDELSARHPAELAMEPTPELPAEVLMVEVENVVHEDFQVTEEVKALTAEIVKTIRDIIALNPLYRESVLQMMQAGQRVVDNPIYLSDMGAALTGAESHELQDVLEETNIPKRLYKALSLLKKEFELSKLQQRLGREVEEKIKQTHRKYLLQEQLKIIKKELGLEKDDKDAIEEKFRERLKELVVPKHVMDVVDEELSKLGLLDNHSSEFNVTRNYLDWLTSIPWGKYSNENLDLARAQAVLEEDHYGMEDVKKRILEFIAVSQLRGSTQGKILCFYGPPGVGKTSIARSIARALNREYFRFSVGGMTDVAEIKGHRRTYVGAMPGKIIQCLKKTKTENPLILIDEVDKIGRGYQGDPSSALLELLDPEQNANFLDHYLDVPVDLSKVLFICTANVTDTIPEPLRDRMEMINVSGYVAQEKLAIAERYLVPQARALCGLDESKAKLSSDVLTLLIKQYCRESGVRNLQKQVEKVLRKSAYKIVSGEAESVEVTPENLQDFVGKPVFTVERMYDVTPPGVVMGLAWTAMGGSTLFVETSLRRPQDKDAKGDKDGSLEVTGQLGEVMKESARIAYTFARAFLMQHAPANDYLVTSHIHLHVPEGATPKDGPSAGCTIVTALLSLAMGRPVRQNLAMTGEVSLTGKILPVGGIKEKTIAAKRAGVTCIVLPAENKKDFYDLAAFITEGLEVHFVEHYREIFDIAFPDEQAEALAVER
B2: the binding entry in assay [2] was “binds”.

B3: Lon (GST pull-down assay), P36776 68-959 (enzyme)
chain: FWEASSRGGGAFSGGEDASEGGAEEGAGGAGGSAGAGEGPVITALTPMTIPDVFPHLPLIAITRNPVFPRFIKIIEVKNKKLVELLRRKVRLAQPYVGVFLKRDDSNESDVVESLDEIYHTGTFAQIHEMQDLGDKLRMIVMGHRRVHISRQLEVEPEEPEAENKHKPRRKSKRGKKEAEDELSARHPAELAMEPTPELPAEVLMVEVENVVHEDFQVTEEVKALTAEIVKTIRDIIALNPLYRESVLQMMQAGQRVVDNPIYLSDMGAALTGAESHELQDVLEETNIPKRLYKALSLLKKEFELSKLQQRLGREVEEKIKQTHRKYLLQEQLKIIKKELGLEKDDKDAIEEKFRERLKELVVPKHVMDVVDEELSKLGLLDNHSSEFNVTRNYLDWLTSIPWGKYSNENLDLARAQAVLEEDHYGMEDVKKRILEFIAVSQLRGSTQGKILCFYGPPGVGKTSIARSIARALNREYFRFSVGGMTDVAEIKGHRRTYVGAMPGKIIQCLKKTKTENPLILIDEVDKIGRGYQGDPSSALLELLDPEQNANFLDHYLDVPVDLSKVLFICTANVTDTIPEPLRDRMEMINVSGYVAQEKLAIAERYLVPQARALCGLDESKAKLSSDVLTLLIKQYCRESGVRNLQKQVEKVLRKSAYKIVSGEAESVEVTPENLQDFVGKPVFTVERMYDVTPPGVVMGLAWTAMGGSTLFVETSLRRPQDKDAKGDKDGSLEVTGQLGEVMKESARIAYTFARAFLMQHAPANDYLVTSHIHLHVPEGATPKDGPSAGCTIVTALLSLAMGRPVRQNLAMTGEVSLTGKILPVGGIKEKTIAAKRAGVTCIVLPAENKKDFYDLAAFITEGLEVHFVEHYREIFDIAFPDEQAEALAVER
Consider B3, for which the binding entry in assay [3] is listed as “binds”.

The record behind these values is PMC4669791.
